Data reported in paper PMC10094283.
No constants are given. Whether binding was seen depends on the method and setting. For part of these data: Binding seen in cells or lysates may run through a third protein. Some results given as binding are weak or reduced against the parent protein; the word gives no strength.

Protein sequences, listed by entry. Tags and fused reporters are not part of them. Lines headed by an entry give the natural chain unless they say otherwise; changes in a name come on top. Chains listed by the source or under a name are the forms on record and can include a tag or linker. Residues count along the entry.
UniProt Q9Y4A5: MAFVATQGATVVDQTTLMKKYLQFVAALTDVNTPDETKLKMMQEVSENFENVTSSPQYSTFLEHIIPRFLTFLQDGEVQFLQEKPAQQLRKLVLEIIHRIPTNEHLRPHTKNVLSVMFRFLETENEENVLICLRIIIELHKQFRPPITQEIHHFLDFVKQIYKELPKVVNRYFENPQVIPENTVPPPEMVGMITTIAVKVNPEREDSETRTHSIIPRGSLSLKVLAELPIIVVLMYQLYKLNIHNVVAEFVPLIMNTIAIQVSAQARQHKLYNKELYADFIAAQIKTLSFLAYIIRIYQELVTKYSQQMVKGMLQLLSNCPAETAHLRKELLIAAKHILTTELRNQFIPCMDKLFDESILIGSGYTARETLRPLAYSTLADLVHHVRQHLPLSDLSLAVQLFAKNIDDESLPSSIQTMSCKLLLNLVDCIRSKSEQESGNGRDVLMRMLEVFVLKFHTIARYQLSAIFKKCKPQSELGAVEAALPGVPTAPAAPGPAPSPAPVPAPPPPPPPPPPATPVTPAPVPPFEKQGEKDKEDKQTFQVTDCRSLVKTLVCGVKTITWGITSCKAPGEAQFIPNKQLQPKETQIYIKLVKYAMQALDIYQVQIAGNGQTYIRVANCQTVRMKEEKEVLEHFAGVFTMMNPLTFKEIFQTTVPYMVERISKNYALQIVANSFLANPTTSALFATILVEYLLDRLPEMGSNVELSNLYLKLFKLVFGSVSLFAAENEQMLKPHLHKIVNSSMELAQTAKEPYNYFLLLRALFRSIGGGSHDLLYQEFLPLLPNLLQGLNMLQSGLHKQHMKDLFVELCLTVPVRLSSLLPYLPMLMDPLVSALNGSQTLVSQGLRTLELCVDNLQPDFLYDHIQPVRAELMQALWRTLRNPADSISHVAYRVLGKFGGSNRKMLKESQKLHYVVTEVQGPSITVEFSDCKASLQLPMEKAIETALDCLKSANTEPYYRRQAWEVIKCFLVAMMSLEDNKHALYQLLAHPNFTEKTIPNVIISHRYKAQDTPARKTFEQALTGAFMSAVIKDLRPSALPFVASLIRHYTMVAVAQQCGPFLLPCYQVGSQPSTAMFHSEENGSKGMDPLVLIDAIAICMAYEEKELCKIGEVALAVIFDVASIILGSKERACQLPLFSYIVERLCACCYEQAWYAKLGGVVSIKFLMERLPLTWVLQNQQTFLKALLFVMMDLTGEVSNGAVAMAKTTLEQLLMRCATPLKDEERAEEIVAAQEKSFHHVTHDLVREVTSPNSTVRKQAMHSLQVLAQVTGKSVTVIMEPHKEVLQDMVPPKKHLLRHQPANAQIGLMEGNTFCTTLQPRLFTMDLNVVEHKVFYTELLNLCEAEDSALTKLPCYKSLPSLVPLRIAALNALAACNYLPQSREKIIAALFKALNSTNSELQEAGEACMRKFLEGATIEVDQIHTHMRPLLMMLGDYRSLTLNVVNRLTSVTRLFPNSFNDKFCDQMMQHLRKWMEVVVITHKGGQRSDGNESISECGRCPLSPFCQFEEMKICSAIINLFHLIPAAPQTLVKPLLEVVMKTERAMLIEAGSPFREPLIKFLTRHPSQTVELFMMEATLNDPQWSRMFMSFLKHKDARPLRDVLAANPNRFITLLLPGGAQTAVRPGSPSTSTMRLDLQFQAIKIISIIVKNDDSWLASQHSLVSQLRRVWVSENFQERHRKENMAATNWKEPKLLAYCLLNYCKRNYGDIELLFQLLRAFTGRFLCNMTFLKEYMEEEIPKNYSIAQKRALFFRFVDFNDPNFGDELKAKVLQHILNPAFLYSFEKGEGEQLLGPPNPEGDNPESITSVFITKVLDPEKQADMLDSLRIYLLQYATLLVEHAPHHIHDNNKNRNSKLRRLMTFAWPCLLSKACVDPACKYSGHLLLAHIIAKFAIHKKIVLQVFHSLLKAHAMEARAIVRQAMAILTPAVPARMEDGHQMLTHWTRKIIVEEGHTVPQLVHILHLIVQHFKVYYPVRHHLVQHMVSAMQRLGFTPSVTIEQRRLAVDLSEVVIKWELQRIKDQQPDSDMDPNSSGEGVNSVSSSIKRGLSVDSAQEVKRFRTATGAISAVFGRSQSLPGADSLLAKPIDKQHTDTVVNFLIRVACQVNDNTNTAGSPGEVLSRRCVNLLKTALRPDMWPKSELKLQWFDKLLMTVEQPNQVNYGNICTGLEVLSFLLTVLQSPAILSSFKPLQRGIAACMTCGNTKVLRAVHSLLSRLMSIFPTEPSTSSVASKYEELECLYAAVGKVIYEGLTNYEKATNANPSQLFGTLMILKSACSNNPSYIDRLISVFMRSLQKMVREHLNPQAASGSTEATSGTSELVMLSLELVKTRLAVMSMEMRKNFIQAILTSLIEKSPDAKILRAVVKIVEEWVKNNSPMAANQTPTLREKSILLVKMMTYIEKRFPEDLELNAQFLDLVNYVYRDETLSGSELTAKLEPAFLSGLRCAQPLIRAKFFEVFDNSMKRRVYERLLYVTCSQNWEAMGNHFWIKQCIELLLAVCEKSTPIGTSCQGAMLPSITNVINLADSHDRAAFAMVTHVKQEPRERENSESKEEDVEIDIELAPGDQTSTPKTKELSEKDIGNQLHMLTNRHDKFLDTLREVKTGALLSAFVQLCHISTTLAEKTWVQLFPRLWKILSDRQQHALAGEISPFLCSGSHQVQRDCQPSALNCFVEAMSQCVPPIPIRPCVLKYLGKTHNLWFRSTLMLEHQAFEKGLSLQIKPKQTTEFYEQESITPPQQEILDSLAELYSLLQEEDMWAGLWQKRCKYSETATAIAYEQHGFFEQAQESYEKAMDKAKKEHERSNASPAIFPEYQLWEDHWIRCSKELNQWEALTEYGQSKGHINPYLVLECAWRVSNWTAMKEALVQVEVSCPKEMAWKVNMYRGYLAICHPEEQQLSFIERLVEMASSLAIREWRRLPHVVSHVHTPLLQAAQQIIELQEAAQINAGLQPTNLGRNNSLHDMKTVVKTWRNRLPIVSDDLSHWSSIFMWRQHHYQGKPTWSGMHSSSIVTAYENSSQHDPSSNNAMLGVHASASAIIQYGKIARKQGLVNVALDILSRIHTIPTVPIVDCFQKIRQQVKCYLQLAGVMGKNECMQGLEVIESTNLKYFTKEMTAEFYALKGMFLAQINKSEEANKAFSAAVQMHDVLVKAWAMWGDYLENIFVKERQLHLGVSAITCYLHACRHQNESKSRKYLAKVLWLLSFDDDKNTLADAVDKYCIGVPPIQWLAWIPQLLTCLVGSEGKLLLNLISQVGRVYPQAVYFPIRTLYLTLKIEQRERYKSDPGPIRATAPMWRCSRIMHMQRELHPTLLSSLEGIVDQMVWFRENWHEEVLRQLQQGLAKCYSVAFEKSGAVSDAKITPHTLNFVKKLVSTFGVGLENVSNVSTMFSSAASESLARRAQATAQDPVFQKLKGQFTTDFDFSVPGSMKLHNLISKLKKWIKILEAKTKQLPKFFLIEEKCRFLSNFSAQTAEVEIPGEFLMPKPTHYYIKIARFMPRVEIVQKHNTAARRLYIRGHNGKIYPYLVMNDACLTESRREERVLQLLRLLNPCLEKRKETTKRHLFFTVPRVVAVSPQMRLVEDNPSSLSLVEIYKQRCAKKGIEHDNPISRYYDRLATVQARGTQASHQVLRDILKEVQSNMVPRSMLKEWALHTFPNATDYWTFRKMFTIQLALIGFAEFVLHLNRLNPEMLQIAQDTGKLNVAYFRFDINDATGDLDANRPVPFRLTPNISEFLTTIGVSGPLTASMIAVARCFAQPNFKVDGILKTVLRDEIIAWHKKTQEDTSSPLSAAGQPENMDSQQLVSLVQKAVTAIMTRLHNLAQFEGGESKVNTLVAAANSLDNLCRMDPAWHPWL
FLAG-tagged TRRAP domain 2 (TRRAP D2, amino acids 1898-2400): residues 1898-2400 of Q9Y4A5
UniProt Q9H9S0: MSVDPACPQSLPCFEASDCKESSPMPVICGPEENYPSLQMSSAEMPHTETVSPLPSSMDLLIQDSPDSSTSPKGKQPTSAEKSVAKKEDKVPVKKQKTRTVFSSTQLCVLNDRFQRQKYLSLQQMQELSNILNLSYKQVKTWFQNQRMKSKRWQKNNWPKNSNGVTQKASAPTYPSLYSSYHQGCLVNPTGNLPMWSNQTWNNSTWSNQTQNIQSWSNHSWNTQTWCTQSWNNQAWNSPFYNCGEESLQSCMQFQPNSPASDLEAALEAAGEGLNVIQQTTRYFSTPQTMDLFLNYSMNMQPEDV

Legend:
[1] = molecular target: FLAG-tagged full-length TRRAP (transformation/transcription domain-associated protein) (UniProt Q9Y4A5); assay: pull-down; TAP-NANOG purified with streptavidin agarose and eluted using biotin, then incubated with the immunoprecipitants of FLAG-TRRAP; both purified
[2] = molecular target: FLAG-tagged full-length TRRAP (transformation/transcription domain-associated protein) (UniProt Q9Y4A5); assay: co-IP; HEK293 cells co-transfected with FLAG-TRRAP constructs and TAP-NANOG; 1 mg lysate (25 mM Tris-HCl pH 8.0, 150 mM NaCl, 0.1% NP-40) incubated with anti-FLAG M2 affinity gel 2 h at 4 °C; Western blot
[3] = molecular target: FLAG-tagged TRRAP domain 2 (TRRAP D2, amino acids 1898-2400) (UniProt Q9Y4A5); assay: as above

binding [1]: binds
binding [2]: binds
binding [3]: binds
Substance: TAP-tagged NANOG (from UniProt Q9H9S0 1-305)
